Test system: panelists
Experiment: Cooling intensity: panelists taste aqueous solutions versus menthol at 2 ppm
Format: in vivo
Conditions: aqueous solution at the concentration of Table 2

Row | Compound | Odor
1 | 1-Isopropyl-4-methyl-bicyclo[2.2.2]oct-5-ene-2-carboxylic acid and 1-isopropyl-4-methyl-bicyclo[2.2.2]oct-5-ene-3-carboxylic acid [Example 2] | None
2 | CC(C)C12C=CC(C)(CC1)C(CO)C2CO (stereo not drawn) [Example 1, 1-Isopropyl-4-methyl-bicyclo[2.2.2]oct-5-ene-2,3-dicarbinol] | None
3 | CCNC(=O)C1CC2(C)C=CC1(C(C)C)CC2 (stereo not drawn) [Example 4, N-ethyl 1-Isopropyl-4-methyl-bicyclo[2.2.2]oct-5-ene-2-carboxamide] | None
4 | CC1=CC2C(O)CC1CC2C(C)C (stereo not drawn) [Example 6, 7-isopropyl-5-methyl-bicyclo[2.2.2]oct-5-en-2-ol] | slightly
5 | CC1CCC(C(C)C)C(O)C1 (stereo not drawn) [I-Menthol, reference compound] | Minty
6 | CCNC(=O)C1CC(C)CCC1C(C)C (stereo not drawn) [WS-3, N-ethyl p-menthanecarboxamide, reference compound] | None
